Values from PubChem BioAssay AID686943 (Drosophila RNAi Screening Center, 2013).

Purpose: 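Knockdowns that increase or decrease active ERK after insulin receptor stimulation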 (primary screen)
System: Drosophila S2R+ haemocyte-like cells expressing YFP-tagged ERK (Rolled)
Knock-down reagent: long dsRNA against Drosophila genes
Challenge: insulin stimulation versus unstimulated cells; dose and duration not given
Measured: 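Per-plate z-scores of phospho-ERK immunostaining normalised to YFP-tagged ERK, measured with and without insulin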
Scale: replicate 1, z-score of dpERK with insulin and replicate 2, z-score of dpERK with insulin: higher = more active ERK per ERK-YFP after insulin; replicate 1, z-score of dpERK under basal conditions: higher = more basal active ERK per ERK-YFP; replicate 1, z-score of ERK-YFP with insulin: higher = more YFP-tagged ERK signal
The deposit covers about 23,000 reagents; below is an unselected part of those with a known target gene and a result. 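Extra replicates exist only for a retested subset of genes; insulin dose and duration not given; both raised and lowered dpERK matter.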 Reagents against one gene are numbered here. A plus sign joins genes that one reagent is predicted to hit. Not stated in the record: the amount of reagent, the time to read-out.

| Gene | reagent no. | replicate 1, z-score of dpERK with insulin | replicate 2, z-score of dpERK with insulin | replicate 1, z-score of dpERK under basal conditions | replicate 1, z-score of ERK-YFP with insulin |
| --- | --- | --- | --- | --- | --- |
| Eig71Ea | 1 | 0.67 | 0.97 | 0.32 | 0.25 |
| CG13248 | 1 | -0.08 | -0.12 | -0.34 | 0.46 |
| asRNA:CR31845 | 1 | -0.13 | -0.96 | -2.13 | 1.24 |
| Gagr | 1 | 0.5 | -0.27 | 0.32 | -0.07 |
| Crys | 1 | -0.15 | 0.55 | -0.4 | 0.05 |
| EMC10 | 1 | 1.26 | 1.12 | 0.66 | -0.52 |
| CG9702 | 1 | 0.23 | -0.15 | -0.32 | 0.43 |
| CG34430 | 1 | 0.15 | -0.02 | 0.21 | 0.4 |
| CG6026 | 1 | -0.07 | 0.48 | -0.85 | -0.08 |
| Serinc | 1 | -0.03 | -0.86 | 0.54 | 0.13 |
| eEFSec | 1 | -0.14 | 0.57 | 1.86 | -0.18 |
| Gp93 | 1 | 1.2 | 0.59 | -0.41 | 0.09 |
| Rab2 | 1 | -0.08 | 0.37 | 0.92 | -0.07 |
| jtb | 1 | 0.9 | 0.96 | 1.59 | -0.62 |
| spi | 1 | -0.38 | 0.62 | -0.24 | 0.09 |
| CG8461 | 1 | -0.33 | -0.21 | -0.16 | 0.4 |
| CG31957 | 1 | 0.49 | 0.7 | 0.12 | -1.33 |
| CG11409 | 1 | -0.02 | 0.98 | -0.35 | -2.06 |
| CG11878 | 1 | -0.02 | 0.09 | -0.44 | 0.29 |
| out | 1 | 1.22 | 0.02 | 0.96 | -0.02 |
| Fad2 | 1 | -1.75 | -1.24 | 0.2 | -0.28 |
| CG43897 | 1 | -1.56 | -1.19 | -0.32 | 1.38 |
| CG43897 | 2 | -2.11 | 0.83 | -1.63 | 0.74 |
| CG43897 | 3 | 1.25 | 0.09 | -0.26 | -0.55 |
| CG43897 | 4 | -1.79 | -2.22 | -1.82 | 0.01 |
| fs(1)Yb | 1 | 0.45 | -0.54 | -0.6 | 0.13 |
| boca | 1 | -0.58 | 0.06 | -0.6 | 0.68 |
| CG10337 | 1 | -0.01 | 0.6 | -0.63 | 0.62 |
| CG32085 | 1 | 0.22 | 1.24 | -0.17 | 0.3 |
| CG32085 | 2 | -0.13 | -0.03 | 0.65 | 0.61 |
| CG32085 | 3 | 0.14 | -0.4 | 1.33 | -0.56 |
| CG6254 | 1 | 0.66 | -0.05 | -0.95 | -0.82 |
| AOX4 | 1 | -0.15 | -1.41 | -0.17 | 0.89 |
| asRNA:CR31514 + CG12947 | 1 | 0.88 | 0.16 | 0.04 | -0.18 |
| CG12698 | 1 | -0.24 | 0.38 | -0.17 | -0.09 |
| CG12620 | 1 | 0.43 | 0.38 | 0.63 | 0.34 |
| ap | 1 | 0.42 | 0.75 | 0.23 | -0.12 |
| CG5160 | 1 | 0.13 | 0.87 | 1.12 | 0.96 |
| CG14752 | 1 | 0.7 | 0.02 | 0.45 | -0.08 |
| maf-S | 1 | -1.16 | -1.29 | -0.2 | 0.77 |
| CG2680 | 1 | -0.21 | 0.8 | 0.75 | 0.38 |
| CG9040 | 1 | -1.18 | -0.66 | -1.05 | 1.23 |
| CG16704 | 1 | 0.03 | 0.44 | -0.47 | 0.65 |
| TBC1D23 | 1 | 0.07 | -0.89 | 0.95 | -0.47 |
| CG4596 | 1 | -0.71 | -0.08 | -0.47 | 0.97 |
| Npc2b | 1 | -0.21 | 0.41 | 1.66 | -0.61 |
| CngB | 1 | 0.74 | 1.93 | 0.88 | 0.17 |
| lab | 1 | -0.5 | -0.63 | -0.83 | 0.51 |
| GMF | 1 | 1.65 | 0.39 | 0.19 | -0.45 |
| CG43691 | 1 | 0.78 | 0.28 | -0.07 | 0.04 |
| CG43691 | 2 | 0.25 | 0.68 | 0.22 | 0.75 |
| eag | 1 | 0.64 | 0.45 | 0.06 | -0.36 |
| eag | 2 | -0.28 | 0.24 | -0.22 | 0.48 |
| Scp2 | 1 | 0.22 | 0.19 | 0.93 | 0.46 |
| Scp2 | 2 | -0.06 | 0.04 | 2.29 | 0.49 |
| MCTS1 | 1 | -0.32 | 0.35 | -1.32 | 0.39 |
| CG4021 | 1 | -0.41 | 0.33 | 0.11 | 0.7 |
